Measurements as given in publication PMC9534960, “De Novo Design of an Androgen Receptor DNA Binding Domain‐Targeted peptide PROTAC for Prostate Cancer Therapy” (Advanced Science, 2022).
No constants are given. Whether binding was seen depends on the method and setting.

By UniProt entry, the sequences of proteins in these tests, tags left out. Where a name states a change or a piece, a line headed by the entry shows the natural chain unless it says otherwise.
UniProt P10275: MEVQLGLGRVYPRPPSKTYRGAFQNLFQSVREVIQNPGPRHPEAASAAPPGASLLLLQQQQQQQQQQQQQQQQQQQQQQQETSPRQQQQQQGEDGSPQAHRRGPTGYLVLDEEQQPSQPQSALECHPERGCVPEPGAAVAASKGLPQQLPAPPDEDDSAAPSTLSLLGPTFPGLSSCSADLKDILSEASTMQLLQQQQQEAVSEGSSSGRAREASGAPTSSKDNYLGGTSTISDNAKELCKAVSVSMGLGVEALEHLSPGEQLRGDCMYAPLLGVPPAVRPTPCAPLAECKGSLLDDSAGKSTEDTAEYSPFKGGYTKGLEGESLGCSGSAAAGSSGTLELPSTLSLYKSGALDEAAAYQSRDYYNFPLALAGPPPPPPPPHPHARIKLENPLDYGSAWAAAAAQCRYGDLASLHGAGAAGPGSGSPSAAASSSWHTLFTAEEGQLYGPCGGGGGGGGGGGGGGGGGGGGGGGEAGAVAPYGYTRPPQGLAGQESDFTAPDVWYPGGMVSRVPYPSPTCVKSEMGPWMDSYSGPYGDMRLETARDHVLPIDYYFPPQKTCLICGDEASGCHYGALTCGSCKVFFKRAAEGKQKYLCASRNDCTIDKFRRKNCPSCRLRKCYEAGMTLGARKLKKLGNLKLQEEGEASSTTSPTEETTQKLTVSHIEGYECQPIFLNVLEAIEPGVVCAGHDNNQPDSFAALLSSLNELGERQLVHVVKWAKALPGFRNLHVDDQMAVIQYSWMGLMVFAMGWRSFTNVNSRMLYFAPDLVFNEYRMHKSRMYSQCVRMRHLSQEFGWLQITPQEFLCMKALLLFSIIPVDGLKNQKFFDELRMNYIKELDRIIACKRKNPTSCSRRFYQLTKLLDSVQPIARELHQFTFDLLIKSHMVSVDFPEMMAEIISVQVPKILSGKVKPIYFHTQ

Target: AR ΔDBD, recombinant from E. coli (UniProt P10275)
Experiment: condition: protein around 20 µM in the cell, peptide around 200 µM in the syringe; ITC; protein (around 20 µM, 0.2 ml) in the sample cell, peptide (around 200 µM) in the syringe; 25 °C; first injection 0.4 µl, then 19 injections of 2 µl; both purified

binding: no binding
Binder: YLCSSNNNRERDKFRRGGSGGTSFEQFWAWLWP [AR pep‐PROTAC drug (designed peptide PROTAC)]
